# Among all 400,000 compounds or so, about 5,500 (1.4%) were called active. Inconclusive means that the source gave no clear call. Such entries were picked first, then a sample of the others. Calls come from the whole dose curve; as a rule, active = well fitted cell-killing curve with a large enough effect; inconclusive = small, poorly fitted or top-dose-only effect, or effect the other way; inactive = flat fitted curve, though single readings scatter. Potencies beside an inconclusive call are fits to weak or partial responses and may not hold up.
# Assay: qHTS assay for MDR1-selective chemotherapeutics: Primary screen using the parental adenocarcinoma cell KB-3-1; note: nearly all actives have a fitted effect of over 60% in size
# Conditions: KB-3-1 viability, CellTiter-Glo ATP luminescence, 72 h; series mostly up to 46.1 µM
# Description: A prime difficulty in effectively treating cancer is the development of cellular resistance to multiple structurally unrelated anticancer drugs, a phenomenon known as multidrug resistance (MDR). […] Numerous strategies to overcome P-gp-mediated MDR have been explored, including the design of drugs that evade recognition and efflux, and development of inhibitors to block efflux and restore drug accumulation. […] An alternative approach is to exploit resistance by identifying drugs that target MDR cells over the non-resistant parental cells from which they were selected. […] The development of MDR1-selective agents represents a new strategy for resolving multidrug resistance, as it remains a long-standing clinical challenge for cancer chemotherapy.
# Our goal is to identify compounds that selectively kill P-gp-expressing MDR cells. We will identify MDR1-selective compounds by comparing toxicity of compounds in the screening library against parental, drug-naive (KB-3-1) adenocarcinoma cells as well as their drug-selected MDR sub-line (KB-V1). The differential toxicity of compounds against these two cell lines will be used to identify MDR1-selective compounds, whose cytotoxicity is potentiated, rather than diminished, by P-gp expression. This assay will be utilized to conduct a quantitative high-throughput screen (qHTS) in collaboration with the NIH Chemical Genomics Center to identify selective agents, and probe hits arising from the screen will be validated using secondary assays and characterized through a well-established follow-up research program. This screen was run against the entire NCGC library collection of about 400,000 compounds.
# NIH Molecular Libraries Probe Production Network [MLPCN]
# NIH Chemical Genomics Center [NCGC]
# PI: Michael Gottesman PhD, National Cancer Institute, NIH
# Briefly, 5 microL of media containing either KB-3-1 cells (columns 1-2, 4-48) are dispensed into Greiner white, treated solid-bottom 1536-well assay plates (media-only control is added to column 3). Compounds are then transferred via Kalypsys pin tool equipped with 1536-pin array (10 nL slotted pins, V&P Scientific, San Diego, CA). Following addition of compound, the plates are incubated at 37 degrees C for 72 hours. CellTiter-Glo (2.5 µL/well) is then added, and the plates are read in a ViewLux reader (Perkin-Elmer, clear luminescence filter, 1 second exposure, 1x binning) following a 10 minute incubation. All cells are dispensed in DMEM phenol-red free media containing 10% FBS.
# Library plates were screened starting from the lowest and proceeding to the highest concentration. Vehicle-only plates, with DMSO being pin-transferred to columns 5-48, will be inserted uniformly at the beginning and the end of each library in order to monitor and record any shifts in the background, which can be affected by reagent dispensers or loss in enzyme activity over time. Screening data will be corrected, normalized, and concentration-effect relationships will be derived by using publicly-available NCGC, NCATS curve fitting algorithms (http://ncgc.nih.gov/pub/openhts).
# Potency is the fitted concentration of half-maximal effect.
row,SMILES,Potency
1,CCN(CC)S(=O)(=O)c1nnc(NC(=O)c2ccc(Br)cc2)s1,"inconclusive: 13 µM [cytotoxic, partial curve, poor fit]"
2,COc1cc(CNCc2ccco2)ccc1OCc1ccccc1,inactive
3,COC(=O)c1c(C)oc(C)c1S(=O)(=O)NCc1ccc(Cl)cc1,inactive
4,Cc1ccc2cc(C)c3nnc(SCC(=O)N4CCN(C(=O)c5ccco5)CC4)n3c2c1,inactive
5,Cc1c(NS(=O)(=O)c2cccc(C(=O)N3CCCC3)c2)c(=O)n(-c2ccccc2)n1C,"inconclusive: 20.6 µM [rising, single point]"
6,O=C1N=C(N2CCN(c3cccc4ccccc34)CC2)S/C1=C/c1cccs1,inactive
7,Cc1ccc(C)c(S(=O)(=O)Nc2cc(SCC(=O)O)c(O)c3ccccc23)c1,"inconclusive: 29.1 µM [cytotoxic, single point]"
8,CCc1ccccc1NC(=S)NCCSc1ccc(Cl)cc1,"inconclusive: 16.4 µM [cytotoxic, partial curve, poor fit]"
9,O=C(c1ccc(S(=O)(=O)c2cccc(Cl)c2)c([N+](=O)[O-])c1)N1CCN(c2ccccn2)CC1,"inconclusive: 29.1 µM [cytotoxic, single point]"
10,COCCOc1cc(NC(=O)c2ccccc2)c(Cl)cc1Cl,"inconclusive: 29.1 µM [cytotoxic, single point]"
11,Cc1ccc(CCNC(=O)CN(C)S(=O)(=O)c2ccc3c(c2)c(=O)n(C)c(=O)n3C)cc1,"inconclusive: 32.6 µM [rising, partial curve, poor fit]"
12,COc1ccc(C(=O)/C=C/C(=O)N(Cc2ccccc2OC)C(C(=O)NC2CCCCC2)c2ccncc2)c(O)c1 (configuration not stated),"inconclusive: 9.2 µM [cytotoxic, partial curve]"
13,O=c1c2[nH]c3cccc(Cl)c3c2ncn1Cc1ccncc1,"inconclusive: 5.8 µM [rising, partial curve, poor fit]"
14,N#CC1=C(N)Oc2cc3ccccc3cc2C1c1cccnc1 (configuration not stated),active: 5.8 µM
15,CC(=O)/C=C\c1cn(-c2ncc(C(F)(F)F)cc2Cl)c2ccccc12,active: 20.6 µM
16,Cc1cccc(-n2c(=O)cc(N3CCN(c4ccc(F)cc4)CC3)[nH]c2=O)c1,"inconclusive: 3.26 µM [cytotoxic, partial curve, poor fit]"
17,CCOC1=C2CN(S(=O)(=O)c3ccc(C)cc3)[C@H](c3ccccc3)C[C@@H]2N(S(=O)(=O)c2ccccc2C)[C@H](c2ccccc2)C1,inactive
18,COc1ccc(NC(=O)C2=C(C)Nc3ncnn3C2c2ccc[nH]2)cc1 (configuration not stated),inactive
19,COc1ccc(-c2ccc3oc(-c4ccsc4)cc3c2)cc1,"inconclusive: 14.6 µM [rising, partial curve, poor fit]"
20,Cc1ccc(Cn2c(C(CO)Nc3nc(-c4ccc(F)cc4)cs3)nc3ccccc32)cc1 (configuration not stated),active: 16.4 µM
21,CCCn1c(CC)nc([N+](=O)[O-])c1S(=O)(=O)c1ccccc1,"inconclusive: 23.1 µM [cytotoxic, single point]"

row,SMILES,Potency
1,CCC(=O)c1ccc(OCC(=O)N2CCN(c3ncccn3)CC2)cc1,inactive
2,Cn1c(CNC(=O)CNC(=O)c2ccc(C(C)(C)C)cc2)cc(=O)n(C)c1=O,inactive
3,CN(CC(=O)Nc1cc(S(=O)(=O)N2CCCCCC2)ccc1Cl)Cc1ccc2c(c1)OCO2,"inconclusive: 25.9 µM [cytotoxic, single point]"
4,CC1=C(C(=O)Nc2ccc(C)cc2C)C(c2cccc([N+](=O)[O-])c2)n2nc(C(=O)OC(C)C)nc2N1 (configuration not stated),"inconclusive: 0.411 µM [rising, full curve, poor fit]"
5,CCOC(=O)C1=C(C)N(C)C(=O)NC1c1c(C)nn(-c2ccc(C)cc2)c1Cl (configuration not stated),"inconclusive: 29.1 µM [cytotoxic, single point]"
6,COc1ccc(CCN2C(=O)c3[nH]nc(-c4ccccc4O)c3C2c2ccccc2)cc1 (configuration not stated),"inconclusive: 20.6 µM [cytotoxic, single point]"
7,Cc1ccc(Cc2c(-c3ccc(Cl)cc3)nc3cc(C)c(Br)c(C)n23)cc1,inactive
8,O=C(Nc1ccc(S(=O)(=O)Nc2nccs2)cc1)/C(=C/c1ccccc1Cl)NC(=O)c1ccccc1,"inconclusive: 29.1 µM [rising, single point]"
9,COc1cc(/C=C/C(=O)O)cc(S(=O)(=O)Nc2ccc3c(c2)OCO3)c1OC,"inconclusive: 20.6 µM [cytotoxic, partial curve, poor fit]"
10,O=C1CCc2cc(S(=O)(=O)NCCc3ccccc3)cc3c2N1CC3,"inconclusive: 29.1 µM [cytotoxic, single point]"
11,O=S(=O)(Nc1nc2ccccc2nc1NCC1CCCO1)c1cccc(Cl)c1 (configuration not stated),inactive
12,N#Cc1ccc(-c2ccc(C3Nc4ccccc4C(=O)N3O)o2)cc1 (configuration not stated),"inconclusive: 29.1 µM [cytotoxic, single point]"
13,C=CCn1c(SCC(=O)Nc2c(C)n(C)n(-c3ccccc3)c2=O)nc2sc(C)c(-c3ccccc3)c2c1=O,inactive
14,CC1Sc2ccc(C(=O)NCc3ccccn3)cc2NC1=O (configuration not stated),inactive
15,O=[N+]([O-])c1ccc(S(=O)(=O)NCC(c2cccnc2)N2CCc3ccccc32)cc1 (configuration not stated),"inconclusive: 23.1 µM [rising, partial curve]"
16,CN(Cc1ccccc1)C(=O)c1ncn2c1c(=O)[nH]c1cccnc12,inactive
17,CCOc1ccccc1NC(=O)CN1C(=O)COc2ccc(S(=O)(=O)NC3CCCC3)cc21,inactive
18,COCC(C)OC(=O)c1c(N)n(CCCN2CCOCC2)c2nc3ccccc3nc12 (configuration not stated),"inconclusive: 0.0231 µM [cytotoxic, full curve]"
19,CN(C)/C=C\C(=C/C(=O)C(F)(F)F)Nc1ccccc1Oc1ccccc1,"inconclusive: 23.1 µM [cytotoxic, single point]"
20,COc1ccc(/C=N/NC(=O)c2cc(-c3ccccc3)nc3ccccc23)c(C(=O)O)c1OC,inactive
21,Cc1cccc(NC(=O)c2nc[nH]c2C(=O)NCCCCNC(=O)c2[nH]cnc2C(=O)Nc2cccc(C)c2)c1,"inconclusive: 23.1 µM [cytotoxic, single point]"

# A different layout for 2 compounds above.
row | SMILES | Potency
17 | CCOC1=C2CN(S(=O)(=O)c3ccc(C)cc3)[C@H](c3ccccc3)C[C@@H]2N(S(=O)(=O)c2ccccc2C)[C@H](c2ccccc2)C1 | inactive
19 | CN(C)/C=C\C(=C/C(=O)C(F)(F)F)Nc1ccccc1Oc1ccccc1 | inconclusive: 23.1 µM [cytotoxic, single point]

# Source: PubChem BioAssay AID1347075 (National Center for Advancing Translational Sciences (NCATS), 2019)
